The list does not hold the whole screen: it gathers tests that were run many times, whatever their T/C, doses with no T/C, and many T/C values between a quarter and a half above the control. Further doses and runs are listed elsewhere. T/C: endpoint of the treated group in % of that of the vehicle group. Some doses have a count of surviving animals in place of a T/C: the source holds a T/C of zero for them, seemingly a mark for toxic or unscored doses. Some survivor counts are full or nearly so, which does not show that the dose was tolerated: survival well below the control is almost never listed, so the zero probably covers shortened survival too. Counts of survivors are from the toxicity check (mostly the fifth day) where no day follows; animals may have died later. Schedules are NCI's codes, taken here to give the interval after Q, in days (D) or hours (H), and the number of doses after X. Where survival is the endpoint, this PubChem deposit counts one and a half times the control or more as active, and values a quarter to a half above the control carry no call in these data; other NCI protocols may use other cut-offs.
System: CD2F1 mice, L1210 leukemia ip, survival T/C
Assay: NCI In Vivo Anticancer Drug Screen. Data for tumor model L1210 Leukemia (intraperitoneal) in CD2F1 (CDF1) mice
Details: higher T/C = longer survival
Method in brief: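 Mice carrying a transplanted tumor received test compound or vehicle alone. The value is the measurement in the treated group divided by that in the vehicle-treated control group.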

[1] = T/C endpoint: mean survival time, dose: 200.0 mg/kg/injection, schedule: Q01DX009 (ip), vehicle: saline with Tween-80
[2] = T/C endpoint: mean survival time, dose: 400.0 mg/kg/injection, schedule: Q01DX009 (ip), vehicle: saline with Tween-80
[3] = T/C endpoint: mean survival time, dose: 100.0 mg/kg/injection, schedule: Q01DX009 (ip), vehicle: saline with Tween-80

## O=S(=O)(c1ccc(N2CCOCC2)cc1)c1ccnc2cc(Cl)ccc12
[1]
  survivor count: 6 of 6
[2]
  survivor count: 6 of 6

## N=C(N)SCSC(=N)N
T/C endpoint: mean survival time, dose: 400.0 mg/kg/injection, schedule: Q04DX003 (ip), vehicle: saline
  survivor count: 3 of 6

## CCCCOP(=O)(OCCCC)[O][Pb]([CH2]C)([CH2]C)[CH2]C
T/C endpoint: mean survival time, dose: 25.0 mg/kg/injection, schedule: Q04DX003 (ip), vehicle: saline with Tween-80
  survivor count: 0 of 6

## [N-]=[N+]=NC1=C(Br)C(=O)OC1COC(=O)c1ccccc1 (stereo not given)
T/C endpoint: mean survival time, dose: 25.0 mg/kg/injection, schedule: Q04DX002 (ip), vehicle: saline with Tween-80
  survivor count: 3 of 3

## COc1ccc2c(c1O)C1CCCCC13CCN(C)C3C2 (stereo not given)
T/C endpoint: mean survival time, dose: 200.0 mg/kg/injection, schedule: Q04DX002 (ip), vehicle: saline with Tween-80
  survivor count: 0 of 3
T/C endpoint: mean survival time, dose: 400.0 mg/kg/injection, schedule: Q04DX002 (ip), vehicle: saline with Tween-80
  survivor count: 0 of 3

## S=c1nc[nH]c2c1ncn2CN1CCCCC1
T/C endpoint: mean survival time, dose: 50.0 mg/kg/injection, schedule: Q01DX009 (ip), vehicle: saline with Tween-80
  T/C: 137 % of control
[3]
  T/C: 148 % of control

## CC(C)NCC(O)COc1ccc(O)c(O)c1 (stereo not given)
T/C endpoint: median survival time, dose: 200.0 mg/kg/injection, schedule: Q01DX009 (ip), vehicle: saline
  survivor count: 0 of 6
T/C endpoint: median survival time, dose: 400.0 mg/kg/injection, schedule: Q01DX009 (ip), vehicle: saline
  survivor count: 0 of 6

## COc1ccc(CNCCCCCCNCc2ccc(OC)cc2)cc1
[1]
  survivor count: 2 of 6
T/C endpoint: mean survival time, dose: 400.0 mg/kg/injection, schedule: Q04DX003 (ip), vehicle: saline with Tween-80
  survivor count: 0 of 6

## Cc1c(O)c2c(c(O)c1Cc1cccc(C#N)c1)C(=O)c1ccccc1C2=O
T/C endpoint: mean survival time, dose: 100.0 mg/kg/injection, schedule: Q01DX009 (ip), vehicle: Klucel (hydroxypropylcellulose) (HPC)
  survivor count: 6 of 6

## O=NN(CCF)C(=O)NC1CCC(NC(=O)N(CCF)N=O)CC1 (stereo not given)
T/C endpoint: mean survival time, dose: 6.25 mg/kg/injection, schedule: Q01DX009 (ip), vehicle: saline with Tween-80
  T/C: 138 % of control
[3]
  survivor count: 3 of 6
[1]
  survivor count: 1 of 6

## Nc1ccc2cc3ccccc3cc2c1
[3]
  survivor count: 6 of 6
[1]
  survivor count: 4 of 6
[2]
  survivor count: 1 of 6

From PubChem BioAssay AID256 (DTP/NCI, 2004)
